Data as given in patent US10357492B2, “Levosimendan for use in the treatment of motor neuron diseases (E.G. ALS)” (Orion Corporation, priority 2014, dated 2019).
Some of these results come from one statement about several compounds together.

Test system: Antibody Induced Myasthenia Gravis Model in Female Lewis Rats
Assay: accelerated rotating rod test (Rotarod) in antibody induced myasthenia gravis model
Format: in vivo
Details: single oral dosage on day 2; levosimendan 0.25 mg/kg, active metabolite (II) 0.025 mg/kg
Description: The effects of levosimendan and its active metabolite (II) on skeletal muscle weakness were studied in an experimental model of Myasthenia Gravis (Russell A J et al., Nat Med 18 (3), 2012, 452-5). Myasthenia Gravis was induced in female Lewis rats by injecting 500 μg/kg of nAChRα1/3/5 antibody (SC-58604, Santa Cruz Biotechnology) intraperitoneally on day 0. Animals with 40-70% drop in muscle strength from baseline at 48 h after administration of the antibody were randomized into treatment groups: 1) Vehicle control (n=6) (0.5% Methocel 5 ml/kg orally), 2) Levosimendan (n=6) (0.25 mg/kg orally), 3) Active metabolite (II) (n=6) (0.025 mg/kg orally).
Coordination, balance, and motor skill acquisition were tested using an accelerated rotating rod test (Rotarod, Ugo Basile, Comerio, Italy). Rats were placed on a rod that accelerated smoothly from 4 to 40 rpm over a period of 5 min. The length of time that each animal was able to stay on the rod was recorded. Three consecutive measurements were performed. Rats were trained for the test four times one day before and twice on the day of antibody injection. Effects of different drug treatments on Rotarod response were measured 0.5 h, 1 h, and 2 h after oral treatment on day 2, i.e. 48 hours after the induction of Myasthenia Gravis.

Structure (SMILES) | time of peak improvement in muscle function after dosing (Rotarod)
CC1CC(=O)NN=C1c1ccc(NN=C(C#N)C#N)cc1 (single isomer, unassigned) [Levosimendan, [[4-(1,4,5,6-tetrahydro-4-methyl-6-oxo-3-pyridazinyl)phenyl]hydrazono]propanedinitrile] | 0.5 to 1 h
CC(=O)Nc1ccc(C2=NNC(=O)C[C@H]2C)cc1 [active metabolite (II), (R)—N-[4-(1,4,5,6-tetrahydro-4-methyl-6-oxo-3-pyridazinyl)phenyl]-acetamide] | 0.5 to 1 h
